Measured values reported in article PMC6716783.
These are yes or no findings as the source states them, for the method shown. Binding seen in cells or lysates may run through a third protein. Some entries that bind do so weakly or less than the wild type.

By UniProt entry, the sequences of proteins in these tests, tags left out. Where a name states a change or a piece, a line headed by the entry shows the natural chain unless it says otherwise. Chains listed by the source or under a name are the forms on record and can include a tag or linker. Residues count along the entry.
ProLink (PK)-tagged human GLP-1R (P43220, residues 24-463): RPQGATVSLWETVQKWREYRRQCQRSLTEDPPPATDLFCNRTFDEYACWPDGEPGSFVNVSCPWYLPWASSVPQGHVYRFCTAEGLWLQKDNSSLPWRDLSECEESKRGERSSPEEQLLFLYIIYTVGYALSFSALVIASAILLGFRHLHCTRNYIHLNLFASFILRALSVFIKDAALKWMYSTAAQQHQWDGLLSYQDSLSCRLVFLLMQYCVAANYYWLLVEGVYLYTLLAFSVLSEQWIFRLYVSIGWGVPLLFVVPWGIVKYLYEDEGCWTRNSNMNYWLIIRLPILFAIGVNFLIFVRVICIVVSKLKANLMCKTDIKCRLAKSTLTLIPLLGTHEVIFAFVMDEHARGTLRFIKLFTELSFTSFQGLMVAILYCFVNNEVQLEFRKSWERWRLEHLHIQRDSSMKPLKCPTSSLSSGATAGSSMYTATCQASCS
PK-tagged SNAP-GLP-1R C438A (P43220, form named): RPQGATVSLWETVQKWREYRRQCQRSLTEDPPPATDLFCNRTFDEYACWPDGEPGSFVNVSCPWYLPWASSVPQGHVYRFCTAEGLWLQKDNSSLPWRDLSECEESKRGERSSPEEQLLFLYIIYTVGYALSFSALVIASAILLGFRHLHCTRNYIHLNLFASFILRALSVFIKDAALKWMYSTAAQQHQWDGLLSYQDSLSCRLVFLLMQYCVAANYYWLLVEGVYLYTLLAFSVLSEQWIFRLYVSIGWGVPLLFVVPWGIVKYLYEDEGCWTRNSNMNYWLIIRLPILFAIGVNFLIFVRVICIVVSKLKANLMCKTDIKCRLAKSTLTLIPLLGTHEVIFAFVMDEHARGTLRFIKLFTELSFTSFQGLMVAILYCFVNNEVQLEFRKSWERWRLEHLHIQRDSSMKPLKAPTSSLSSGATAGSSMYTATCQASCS

Experiments:
Assay in all cases: split reporter
[1] = biological target: PK-tagged SNAP-GLP-1R C438A (human) (UniProt P43220)
[2] = biological target: PK-tagged SNAP-GLP-1R wild type (human) (UniProt P43220)
[3] = biological target: ProLink (PK)-tagged human GLP-1R (human) (UniProt P43220)

Measured: binding

beta-arrestin-2 fused to EA (beta-arrestin-2-EA) (from UniProt P32121 1-409)
binds: all assays above
